Laboratory results: PubChem BioAssay AID720505 (Drosophila RNAi Screening Center, 2013)
In all, the deposit lists about 20,000 reagents; below is a random part of those that have a named target and a result. Of all reagents, about 2,100 (10%) were called active. 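Raw plate signals without normalisation; calls rest on control-based scores that were not deposited; replicate 2 separates called from uncalled poorly.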 Not given: the amount of reagent, the time to read-out.

Test: 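Knock-downs that reduce calcium influx once internal stores are emptied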 (primary screen)
System: Drosophila S2R+ cells
Reagent: long dsRNA against Drosophila genes
Conditions: thapsigargin (2 µM) in calcium-free buffer to empty internal stores, then 2 mM calcium added back
Measured: 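Fluo-4 signal in 384-well plates read on a FLIPR after thapsigargin (2 µM, calcium-free) store depletion and 2 mM calcium add-back; unnormalised mean endpoint per well; screen run twice, selected wells retested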
Direction: calcium signal: higher = more calcium entry after store depletion
Call rule: 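Knock-downs counted as hits when calcium entry dropped relative to STIM1 positive and Rho1 negative controls present on each plate; roughly 1500 genes called, with reductions of differing size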
Calls: active = called as lowering calcium entry; inactive = not called

| Target gene | DRSC id | calcium signal, replicate 1 | calcium signal, replicate 2 | Outcome |
| --- | --- | --- | --- | --- |
| kin17 (GeneID 40242) | DRSC11890 | 81.2 | 130 | inactive |
| bab2 (GeneID 44254) | DRSC08150 | 96.7 | 152 | inactive |
| bab2 (GeneID 44254) | DRSC08380 | 106 | 129 | inactive |
| SmydA-8 (GeneID 31200) | DRSC18797 | 132 | 120 | inactive |
| SmydA-8 (GeneID 31200) | DRSC22064 | 122 | 227 | inactive |
| SmydA-8 (GeneID 31200) | DRSC22263 | 93.5 | 175 | inactive |
| pros (GeneID 41363) | DRSC17032 | 87 | 85.1 | inactive |
| pros (GeneID 41363) | DRSC22612 | 126 | 219 | inactive |
| TfIIA-L (GeneID 43284) | DRSC16882 | 101 | 88.7 | inactive |
| Rack1 (GeneID 34070) | DRSC03405 | 135 | 111 | inactive |
| CG3226 (GeneID 31597) | DRSC18296 | 194 | 113 | inactive |
| CG4998 (GeneID 39808) | DRSC10466 | 81.9 | 194 | inactive |
| CG4998 (GeneID 39808) | DRSC22911 | 91.2 | 153 | inactive |
| CG10962 (GeneID 31824) | DRSC18421 | 106 | 148 | inactive |
| exu (GeneID 37345) | DRSC07615 | 157 | 93 | inactive |
| Gagr (GeneID 39824) | DRSC10441 | 138 | 80.7 | inactive |
| CG33454 (GeneID 2768850) | DRSC22914 | 107 | 187 | inactive |
| Vps53 (GeneID 33640) | DRSC00595 | 146 | 294 | inactive |
| hoka (GeneID 38588) | DRSC08313 | 100 | 81.5 | inactive |
| Ilk (GeneID 53573) | DRSC11868 | 96.3 | 124 | inactive |
| CG32756 (GeneID 318193) | DRSC22505 | 95.9 | 160 | inactive |
| CG32756 (GeneID 318193) | DRSC23271 | 94.9 | 115 | inactive |
| CG4701 (GeneID 34858) | DRSC01952 | 122 | 138 | inactive |
| nom (GeneID 41038) | DRSC16389 | 122 | 154 | inactive |
| CG14780 (GeneID 31102) | DRSC18566 | 68.3 | 139 | inactive |
| CG14383 (GeneID 41593) | DRSC14841 | 92.7 | 85.4 | inactive |
| Kul (GeneID 43501) | DRSC15404 | 159 | 164 | inactive |
| CG15432 (GeneID 33647) | DRSC00447 | 97.6 | 116 | inactive |
| CG4610 (GeneID 37571) | DRSC04477 | 115 | 85.6 | inactive |
| CG4610 (GeneID 37571) | DRSC22397 | 94.8 | 89.9 | inactive |
| Osi12 (GeneID 40766) | DRSC12177 | 101 | 79.4 | inactive |
| Prosbeta4R1 (GeneID 33449) | DRSC00502 | 159 | 168 | inactive |
| Ran-like (GeneID 39666) | DRSC10918 | 81 | 161 | active |
| CG13244 (GeneID 34940) | DRSC21642 | 147 | 127 | inactive |
